Among all 580,000 compounds or so, about 6,100 (1.1%) were called active. Inconclusive means that the source gave no clear call. Such entries were picked first, then a sample of the others. Calls come from the whole dose curve; as a rule, active = well fitted inhibition curve with a large enough effect; inconclusive = small, poorly fitted or top-dose-only effect, or another doubt; inactive = no such curve, though single readings can be large or run the other way. Potencies beside an inconclusive call are fits to weak or partial responses and may not hold up.
biological target: Polyunsaturated fatty acid lipoxygenase ALOX12 (Homo sapiens) (UniProt P18054); assay: Primary qHTS assay for inhibitors of human arachidonate 12S-lipoxygenase (ALOX12): Round 2; settings: purified 12hLO, xylenol orange hydroperoxide absorbance; activity change, negative = inhibition: at 108 µM (top of the series) unless noted
Method in brief: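 Purified human 12hLO at 150 nM in 25 mM Hepes, 0.01% Triton X-100, pH 7.0, preincubated 15 min at room temperature with compound. Reaction started with 40 uM arachidonic acid, 30 min at room temperature. Hydroperoxide measured by Fe-xylenol orange, 573/405 nm absorbance ratio.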
% is set by controls: 0 for no effect and ±100 for the full control effect; potency is the fitted concentration of half-maximal effect.

The chains behind the UniProt entries cited, without tags or fusion partners.
UniProt P18054, whole entry, looked up: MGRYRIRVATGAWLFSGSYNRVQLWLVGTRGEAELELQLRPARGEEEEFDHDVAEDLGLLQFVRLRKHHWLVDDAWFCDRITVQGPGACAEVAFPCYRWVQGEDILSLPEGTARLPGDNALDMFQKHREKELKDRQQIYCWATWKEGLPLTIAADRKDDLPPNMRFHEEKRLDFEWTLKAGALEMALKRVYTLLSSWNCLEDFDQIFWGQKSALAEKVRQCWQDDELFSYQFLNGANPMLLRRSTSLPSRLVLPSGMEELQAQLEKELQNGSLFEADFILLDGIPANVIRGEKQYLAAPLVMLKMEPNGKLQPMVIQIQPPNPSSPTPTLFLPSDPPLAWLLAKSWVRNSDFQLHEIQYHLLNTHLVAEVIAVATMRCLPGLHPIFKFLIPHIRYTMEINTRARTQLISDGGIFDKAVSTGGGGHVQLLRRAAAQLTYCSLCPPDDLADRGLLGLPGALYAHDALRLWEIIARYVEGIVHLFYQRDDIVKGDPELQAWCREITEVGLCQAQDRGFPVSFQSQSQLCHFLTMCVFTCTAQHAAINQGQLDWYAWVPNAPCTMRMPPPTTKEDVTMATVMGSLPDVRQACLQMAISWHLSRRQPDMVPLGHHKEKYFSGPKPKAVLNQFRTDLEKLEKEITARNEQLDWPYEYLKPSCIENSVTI

| SMILES | Potency | activity change, negative = inhibition |
| --- | --- | --- |
| O=c1[nH]c2ccc(NC(=S)Nc3ccc(Cl)cc3Cl)cc2[nH]1 | inconclusive: 56.2 µM [inhibitor, partial curve, poor fit] |  |
| CCCc1cc(=O)oc2c(C)c(OCC(=O)c3ccc(-c4ccccc4)cc3)ccc12 |  | inactive: 8.56% |
| Cc1ccc(NC(=O)C(C)SCC(=O)Nc2ccc(F)cc2)cc1S(=O)(=O)N1CCOCC1 (stereo unspecified) |  | inactive: 4.69% |
| CC1(C)Cc2nc(NCCN3CCOCC3)c(C#N)cc2CO1 | inconclusive: 50.1 µM [inhibitor, partial curve, poor fit] |  |
| CC1CCN(CCCn2c(=S)[nH]c3c(sc4ccc([N+](=O)[O-])cc43)c2=O)CC1 | inconclusive: 25.1 µM [inhibitor, full curve, poor fit] |  |
| CSc1cccc(NC(=O)N[C@H]2CCN(C(=O)c3cccn3C)[C@@H]2C(=O)N[C@@H](Cc2cccs2)C(N)=O)c1 |  | inactive: -1.85% |
| CCCc1noc(-c2ccn3c(CNC(=O)c4cccc(C)c4)nnc3c2)n1 | inconclusive: 79.4 µM [inhibitor, single point] |  |
| CCO[C@H]1CN(C(=O)CCc2ccc(-c3ccccc3)cc2)C[C@@H]1O |  | inactive: 23.4% |
| CCCN1CC[C@H]2COC(=O)N2c2cc(F)ccc2C1 | inconclusive: 63.1 µM [inhibitor, full curve] |  |
| O=C(NCCN1CCCC1)c1nn(Cc2ccccc2)c(=O)c2ccccc12 |  | inactive: -8.48% |
| Cc1ccc(O[C@H]2COCC[C@H]2NC(=O)CCc2nc3ccccc3[nH]2)cn1 |  | inactive: 9.89% |
| Cn1cccc1C(=O)N1CCc2nn(Cc3ccccc3)c(=O)n2CC1 |  | inactive: -3.17% |
| CCCCOCc1cc(CN2CCN(c3cccc(Cl)c3)CC2)c(O)c2ncccc12 | inconclusive: 31.6 µM [inhibitor, partial curve] |  |
| O=C(C1=NNCC1c1ccc(Cl)cc1)C1CO1 (stereo unspecified) |  | inactive: -10.9% |
| COc1ccc(/C=N/OCC(=O)Nc2cccc(C(F)(F)F)c2)cc1 |  | inactive: -28.4% |
| CC(=O)NCc1ccc(C(=O)CCl)o1 | inconclusive: 22.4 µM [inhibitor, partial curve] |  |
| CCOC(=O)CN1N=C(/C=C/c2ccc(OCC)cc2)CCC1=O |  | inactive: -7.81% |
| CCN1CNC(=S)N(c2cccc(C)c2)C1 | inconclusive: 100 µM [inhibitor, single point] |  |
| N=c1c(S(=O)(=O)c2ccc(Br)cc2)cc2c(=O)n3ccccc3nc2n1C1CCCC1 | inconclusive: 63.1 µM [inhibitor, partial curve, poor fit] |  |
| O=C(Nc1cccc(S(=O)(=O)N2CCCCCC2)c1)c1n[nH]c(=O)c2ccccc12 |  | inactive: -21.7% |
| CCC(C)NC(=O)c1cc(-c2cccs2)nc2ccccc12 (stereo unspecified) | inconclusive: 79.4 µM [inhibitor, single point] |  |

Look-ups from the entries so far:
activity change, negative = inhibition, `Cc1ccc(O[C@H]2COCC[C@H]2NC(=O)CCc2nc3ccccc3[nH]2)cn1` is entered as inactive: 9.89%
Potency, `CC1CCN(CCCn2c(=S)[nH]c3c(sc4ccc([N+](=O)[O-])cc43)c2=O)CC1` is entered as inconclusive: 25.1 µM [inhibitor, full curve, poor fit]
